Results are given in words; binding and its absence hold for the method and conditions named. In cells and extracts the contact can be indirect. Some results given as binding are weak or reduced against the parent protein; the word gives no strength.
T1: Cas1 of E. coli K12 Type I-E CRISPR/Cas complex (E. coli K12) (UniProt Q46896)
T1 sequence: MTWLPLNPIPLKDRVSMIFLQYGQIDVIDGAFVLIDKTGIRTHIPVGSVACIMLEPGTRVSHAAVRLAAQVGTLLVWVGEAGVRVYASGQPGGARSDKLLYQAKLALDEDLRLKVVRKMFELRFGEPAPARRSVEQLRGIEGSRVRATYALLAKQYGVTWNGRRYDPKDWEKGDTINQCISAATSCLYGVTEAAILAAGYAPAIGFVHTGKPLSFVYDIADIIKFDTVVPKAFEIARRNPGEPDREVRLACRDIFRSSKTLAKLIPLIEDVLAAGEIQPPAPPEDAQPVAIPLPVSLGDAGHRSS


Target: T1, Cas1 of E. coli K12 Type I-E CRISPR/Cas complex (E. coli K12)
Experiment: split reporter; SPEC profiling of CRISPR/Cas effectors and Cas3 / Cas2-3 mutants in E. coli cells; sfGFP fluorescence by flow cytometry; interaction intensity normalized to cells expressing wt HRV 3 C protease

| Binder | binding |
| --- | --- |
| Cas3 H74A (E. coli K12 Type I-E) (protein, UniProt P38036 1-888) MEPFKYICHYWGKSSKSLTKGNDIHLLIYHCLDVAAVADCWWDQSVVLQNTFCRNEMLSKQRVKAWLLFFIALADIGKFDIRFQYKSAESWLKLNPATPSLNGPSTQMCRKFNHGAAGLYWFNQDSLSEQSLGDFFSFFDAAPHPYESWFPWVEAVTGHHGFILHSQDQDKSRWEMPASLASYAAQDKQAREEWISVLEALFLTPAGLSINDIPPDCSSLLAGFCSLADWLGSWTTTNTFLFNEDAPSDINALRTYFQDRQQDASRVLELSGLVSNKRCYEGVHALLDNGYQPRQLQVLVDALPVAPGLTVIEAPTGSGKTETALAYAWKLIDQQIADSVIFALPTQATANAMLTRMEASASHLFSSPNLILAHGNSRFNHLFQSIKSRAITEQGQEEAWVQCCQWLSQSNKKVFLGQIGVCTIDQVLISVLPVKHRFIRGLGIGRSVLIVDEVHAYDTYMNGLLEAVLKAQADVGGSVILLSATLPMKQKQKLLDTYGLHTDPVENNSAYPLINWRGVNGAQRFDLLAHPEQLPPRFSIQPEPICLADMLPDLTMLERMIAAANAGAQVCLICNLVDVAQVCYQRLKELNNTQVDIDLFHARFTLNDRREKENRVISNFGKNGKRNVGRILVATQVVEQSLDVDFDWLITQHCPADLLFQRLGRLHRHHRKYRPAGFEIPVATILLPDGEGYGRHEHIYSNVRVMWRTQQHIEELNGASLFFPDAYRQWLDSIYDDAEMDEPEWVGNGMDKFESAECEKRFKARKVLQWAEEYSLQDNDETILAVTRDGEMSLPLLPYVQTSSGKQLLDGQVYEDLSHEQQYEALALNRVNVPFTWKRSFSEVVDEDGLLWLEGKQNLDGWVWQGNSIVITYTGDEGMTRVIPANPK | binds |
| Cas3 D75A (E. coli K12 Type I-E) (protein, UniProt P38036 1-888) MEPFKYICHYWGKSSKSLTKGNDIHLLIYHCLDVAAVADCWWDQSVVLQNTFCRNEMLSKQRVKAWLLFFIALHAIGKFDIRFQYKSAESWLKLNPATPSLNGPSTQMCRKFNHGAAGLYWFNQDSLSEQSLGDFFSFFDAAPHPYESWFPWVEAVTGHHGFILHSQDQDKSRWEMPASLASYAAQDKQAREEWISVLEALFLTPAGLSINDIPPDCSSLLAGFCSLADWLGSWTTTNTFLFNEDAPSDINALRTYFQDRQQDASRVLELSGLVSNKRCYEGVHALLDNGYQPRQLQVLVDALPVAPGLTVIEAPTGSGKTETALAYAWKLIDQQIADSVIFALPTQATANAMLTRMEASASHLFSSPNLILAHGNSRFNHLFQSIKSRAITEQGQEEAWVQCCQWLSQSNKKVFLGQIGVCTIDQVLISVLPVKHRFIRGLGIGRSVLIVDEVHAYDTYMNGLLEAVLKAQADVGGSVILLSATLPMKQKQKLLDTYGLHTDPVENNSAYPLINWRGVNGAQRFDLLAHPEQLPPRFSIQPEPICLADMLPDLTMLERMIAAANAGAQVCLICNLVDVAQVCYQRLKELNNTQVDIDLFHARFTLNDRREKENRVISNFGKNGKRNVGRILVATQVVEQSLDVDFDWLITQHCPADLLFQRLGRLHRHHRKYRPAGFEIPVATILLPDGEGYGRHEHIYSNVRVMWRTQQHIEELNGASLFFPDAYRQWLDSIYDDAEMDEPEWVGNGMDKFESAECEKRFKARKVLQWAEEYSLQDNDETILAVTRDGEMSLPLLPYVQTSSGKQLLDGQVYEDLSHEQQYEALALNRVNVPFTWKRSFSEVVDEDGLLWLEGKQNLDGWVWQGNSIVITYTGDEGMTRVIPANPK | binds |
| Cas3 S483A/T485A (E. coli K12 Type I-E) (protein, UniProt P38036 1-888) MEPFKYICHYWGKSSKSLTKGNDIHLLIYHCLDVAAVADCWWDQSVVLQNTFCRNEMLSKQRVKAWLLFFIALHDIGKFDIRFQYKSAESWLKLNPATPSLNGPSTQMCRKFNHGAAGLYWFNQDSLSEQSLGDFFSFFDAAPHPYESWFPWVEAVTGHHGFILHSQDQDKSRWEMPASLASYAAQDKQAREEWISVLEALFLTPAGLSINDIPPDCSSLLAGFCSLADWLGSWTTTNTFLFNEDAPSDINALRTYFQDRQQDASRVLELSGLVSNKRCYEGVHALLDNGYQPRQLQVLVDALPVAPGLTVIEAPTGSGKTETALAYAWKLIDQQIADSVIFALPTQATANAMLTRMEASASHLFSSPNLILAHGNSRFNHLFQSIKSRAITEQGQEEAWVQCCQWLSQSNKKVFLGQIGVCTIDQVLISVLPVKHRFIRGLGIGRSVLIVDEVHAYDTYMNGLLEAVLKAQADVGGSVILLAAALPMKQKQKLLDTYGLHTDPVENNSAYPLINWRGVNGAQRFDLLAHPEQLPPRFSIQPEPICLADMLPDLTMLERMIAAANAGAQVCLICNLVDVAQVCYQRLKELNNTQVDIDLFHARFTLNDRREKENRVISNFGKNGKRNVGRILVATQVVEQSLDVDFDWLITQHCPADLLFQRLGRLHRHHRKYRPAGFEIPVATILLPDGEGYGRHEHIYSNVRVMWRTQQHIEELNGASLFFPDAYRQWLDSIYDDAEMDEPEWVGNGMDKFESAECEKRFKARKVLQWAEEYSLQDNDETILAVTRDGEMSLPLLPYVQTSSGKQLLDGQVYEDLSHEQQYEALALNRVNVPFTWKRSFSEVVDEDGLLWLEGKQNLDGWVWQGNSIVITYTGDEGMTRVIPANPK | binds |

The next lines start with the values.

| binding | Binder |
| --- | --- |
| binds | Cas3 K78A (E. coli K12 Type I-E) (protein, UniProt P38036 1-888) MEPFKYICHYWGKSSKSLTKGNDIHLLIYHCLDVAAVADCWWDQSVVLQNTFCRNEMLSKQRVKAWLLFFIALHDIGAFDIRFQYKSAESWLKLNPATPSLNGPSTQMCRKFNHGAAGLYWFNQDSLSEQSLGDFFSFFDAAPHPYESWFPWVEAVTGHHGFILHSQDQDKSRWEMPASLASYAAQDKQAREEWISVLEALFLTPAGLSINDIPPDCSSLLAGFCSLADWLGSWTTTNTFLFNEDAPSDINALRTYFQDRQQDASRVLELSGLVSNKRCYEGVHALLDNGYQPRQLQVLVDALPVAPGLTVIEAPTGSGKTETALAYAWKLIDQQIADSVIFALPTQATANAMLTRMEASASHLFSSPNLILAHGNSRFNHLFQSIKSRAITEQGQEEAWVQCCQWLSQSNKKVFLGQIGVCTIDQVLISVLPVKHRFIRGLGIGRSVLIVDEVHAYDTYMNGLLEAVLKAQADVGGSVILLSATLPMKQKQKLLDTYGLHTDPVENNSAYPLINWRGVNGAQRFDLLAHPEQLPPRFSIQPEPICLADMLPDLTMLERMIAAANAGAQVCLICNLVDVAQVCYQRLKELNNTQVDIDLFHARFTLNDRREKENRVISNFGKNGKRNVGRILVATQVVEQSLDVDFDWLITQHCPADLLFQRLGRLHRHHRKYRPAGFEIPVATILLPDGEGYGRHEHIYSNVRVMWRTQQHIEELNGASLFFPDAYRQWLDSIYDDAEMDEPEWVGNGMDKFESAECEKRFKARKVLQWAEEYSLQDNDETILAVTRDGEMSLPLLPYVQTSSGKQLLDGQVYEDLSHEQQYEALALNRVNVPFTWKRSFSEVVDEDGLLWLEGKQNLDGWVWQGNSIVITYTGDEGMTRVIPANPK |
| binds | Cas3 K320N (E. coli K12 Type I-E) (protein, UniProt P38036 1-888) MEPFKYICHYWGKSSKSLTKGNDIHLLIYHCLDVAAVADCWWDQSVVLQNTFCRNEMLSKQRVKAWLLFFIALHDIGKFDIRFQYKSAESWLKLNPATPSLNGPSTQMCRKFNHGAAGLYWFNQDSLSEQSLGDFFSFFDAAPHPYESWFPWVEAVTGHHGFILHSQDQDKSRWEMPASLASYAAQDKQAREEWISVLEALFLTPAGLSINDIPPDCSSLLAGFCSLADWLGSWTTTNTFLFNEDAPSDINALRTYFQDRQQDASRVLELSGLVSNKRCYEGVHALLDNGYQPRQLQVLVDALPVAPGLTVIEAPTGSGNTETALAYAWKLIDQQIADSVIFALPTQATANAMLTRMEASASHLFSSPNLILAHGNSRFNHLFQSIKSRAITEQGQEEAWVQCCQWLSQSNKKVFLGQIGVCTIDQVLISVLPVKHRFIRGLGIGRSVLIVDEVHAYDTYMNGLLEAVLKAQADVGGSVILLSATLPMKQKQKLLDTYGLHTDPVENNSAYPLINWRGVNGAQRFDLLAHPEQLPPRFSIQPEPICLADMLPDLTMLERMIAAANAGAQVCLICNLVDVAQVCYQRLKELNNTQVDIDLFHARFTLNDRREKENRVISNFGKNGKRNVGRILVATQVVEQSLDVDFDWLITQHCPADLLFQRLGRLHRHHRKYRPAGFEIPVATILLPDGEGYGRHEHIYSNVRVMWRTQQHIEELNGASLFFPDAYRQWLDSIYDDAEMDEPEWVGNGMDKFESAECEKRFKARKVLQWAEEYSLQDNDETILAVTRDGEMSLPLLPYVQTSSGKQLLDGQVYEDLSHEQQYEALALNRVNVPFTWKRSFSEVVDEDGLLWLEGKQNLDGWVWQGNSIVITYTGDEGMTRVIPANPK |
| binds | Cas3 D452N (E. coli K12 Type I-E) (protein, UniProt P38036 1-888) MEPFKYICHYWGKSSKSLTKGNDIHLLIYHCLDVAAVADCWWDQSVVLQNTFCRNEMLSKQRVKAWLLFFIALHDIGKFDIRFQYKSAESWLKLNPATPSLNGPSTQMCRKFNHGAAGLYWFNQDSLSEQSLGDFFSFFDAAPHPYESWFPWVEAVTGHHGFILHSQDQDKSRWEMPASLASYAAQDKQAREEWISVLEALFLTPAGLSINDIPPDCSSLLAGFCSLADWLGSWTTTNTFLFNEDAPSDINALRTYFQDRQQDASRVLELSGLVSNKRCYEGVHALLDNGYQPRQLQVLVDALPVAPGLTVIEAPTGSGKTETALAYAWKLIDQQIADSVIFALPTQATANAMLTRMEASASHLFSSPNLILAHGNSRFNHLFQSIKSRAITEQGQEEAWVQCCQWLSQSNKKVFLGQIGVCTIDQVLISVLPVKHRFIRGLGIGRSVLIVNEVHAYDTYMNGLLEAVLKAQADVGGSVILLSATLPMKQKQKLLDTYGLHTDPVENNSAYPLINWRGVNGAQRFDLLAHPEQLPPRFSIQPEPICLADMLPDLTMLERMIAAANAGAQVCLICNLVDVAQVCYQRLKELNNTQVDIDLFHARFTLNDRREKENRVISNFGKNGKRNVGRILVATQVVEQSLDVDFDWLITQHCPADLLFQRLGRLHRHHRKYRPAGFEIPVATILLPDGEGYGRHEHIYSNVRVMWRTQQHIEELNGASLFFPDAYRQWLDSIYDDAEMDEPEWVGNGMDKFESAECEKRFKARKVLQWAEEYSLQDNDETILAVTRDGEMSLPLLPYVQTSSGKQLLDGQVYEDLSHEQQYEALALNRVNVPFTWKRSFSEVVDEDGLLWLEGKQNLDGWVWQGNSIVITYTGDEGMTRVIPANPK |

Source: article PMC8260793, “A split protease-E. coli ClpXP system quantifies protein–protein interactions in Escherichia coli cells” (Communications Biology, 2021)
